In patent publication US11419829B2, “Use of cannabidiol in combination with 5-HT2B receptor agonists or amphetamines in the treatment of epilepsy” (GW Research Limited, priority 2017, dated 2022):
Counter-ions that a name gives are not always drawn.

Tested on: MES-induced tonic seizures
Experiment: Maximal electroshock seizure (MES) test in mice with isobolographic/CalcuSyn DDI analysis
Assay type: in vivo, mouse
Settings: median-effect curves, drug alone; m>1 sigmoidal
Method: The study was performed in two phases. […] Secondly, (Experiment B), drug-drug interactions (DDI) and anticonvulsant activities for CBD/FEN in combination were determined.
Experiment A was performed using 160 male, C57Bl6 mice, weighing between 20.1-30.1 g, and Experiment B was performed using 126 male, C57Bl6 mice, weighing between 19.2-26.1 g, purchased from a licensed breeder (Charles River, UK).
The following drugs were used in this study: Purified botanical CBD provided by GW Research Ltd., fenfluramine hydrochloride (FEN) purchased from Sigma Merck. The control vehicle used was 1:1:18 (5% ethanol, 5% Kolliphor EL, 90% saline). […]
Electroconvulsions were produced by application of a fixed current intensity of 30 mA (0.2 sec duration) delivered via corneal electrodes. […] Mice were individually assessed for production of seizure determined by presence or absence of tonic hindlimb extension following current application. […]
For the three fixed-ratio CBD/FEN combinations (1:3, 1:1 and 3:1), calculations were based on Loewe's equation of additivity as follows; x/EE50(CBD)+y/EE50(FEN)=1; where x=the exposure of CBD and y=the exposure at which […], when co-administered with FEN, should theoretically exert the desired/additive 50% effect. […] Similarly, dose proportions were calculated for the CBD/FEN 1:3 and 3:1 ratios based on theoretical additive EE50. […]

Row | SMILES | m value of the dose-effect curve
1 | C=C(C)[C@@H]1CCC(C)=C[C@H]1c1c(O)cc(CCCCC)cc1O [CBD, cannabidiol] | 2.6 ± 0.5
2 | CCNC(C)Cc1cccc(C(F)(F)F)c1 (centres unmarked) [FEN, fenfluramine hydrochloride, reference compound] | 2.6 ± 0.7
